In the supplement of paper PMC12067093, “Discovery and optimisation of a covalent ligand for TRIM25 and its application to targeted protein ubiquitination” (Chemical Science, 2025):
This is one part of the list.

Chains of the proteins cited; added tags and fusions are not shown. Lines headed by an entry give the natural chain unless they say otherwise; changes in a name come on top.
UniProt P78527, whole entry, looked up: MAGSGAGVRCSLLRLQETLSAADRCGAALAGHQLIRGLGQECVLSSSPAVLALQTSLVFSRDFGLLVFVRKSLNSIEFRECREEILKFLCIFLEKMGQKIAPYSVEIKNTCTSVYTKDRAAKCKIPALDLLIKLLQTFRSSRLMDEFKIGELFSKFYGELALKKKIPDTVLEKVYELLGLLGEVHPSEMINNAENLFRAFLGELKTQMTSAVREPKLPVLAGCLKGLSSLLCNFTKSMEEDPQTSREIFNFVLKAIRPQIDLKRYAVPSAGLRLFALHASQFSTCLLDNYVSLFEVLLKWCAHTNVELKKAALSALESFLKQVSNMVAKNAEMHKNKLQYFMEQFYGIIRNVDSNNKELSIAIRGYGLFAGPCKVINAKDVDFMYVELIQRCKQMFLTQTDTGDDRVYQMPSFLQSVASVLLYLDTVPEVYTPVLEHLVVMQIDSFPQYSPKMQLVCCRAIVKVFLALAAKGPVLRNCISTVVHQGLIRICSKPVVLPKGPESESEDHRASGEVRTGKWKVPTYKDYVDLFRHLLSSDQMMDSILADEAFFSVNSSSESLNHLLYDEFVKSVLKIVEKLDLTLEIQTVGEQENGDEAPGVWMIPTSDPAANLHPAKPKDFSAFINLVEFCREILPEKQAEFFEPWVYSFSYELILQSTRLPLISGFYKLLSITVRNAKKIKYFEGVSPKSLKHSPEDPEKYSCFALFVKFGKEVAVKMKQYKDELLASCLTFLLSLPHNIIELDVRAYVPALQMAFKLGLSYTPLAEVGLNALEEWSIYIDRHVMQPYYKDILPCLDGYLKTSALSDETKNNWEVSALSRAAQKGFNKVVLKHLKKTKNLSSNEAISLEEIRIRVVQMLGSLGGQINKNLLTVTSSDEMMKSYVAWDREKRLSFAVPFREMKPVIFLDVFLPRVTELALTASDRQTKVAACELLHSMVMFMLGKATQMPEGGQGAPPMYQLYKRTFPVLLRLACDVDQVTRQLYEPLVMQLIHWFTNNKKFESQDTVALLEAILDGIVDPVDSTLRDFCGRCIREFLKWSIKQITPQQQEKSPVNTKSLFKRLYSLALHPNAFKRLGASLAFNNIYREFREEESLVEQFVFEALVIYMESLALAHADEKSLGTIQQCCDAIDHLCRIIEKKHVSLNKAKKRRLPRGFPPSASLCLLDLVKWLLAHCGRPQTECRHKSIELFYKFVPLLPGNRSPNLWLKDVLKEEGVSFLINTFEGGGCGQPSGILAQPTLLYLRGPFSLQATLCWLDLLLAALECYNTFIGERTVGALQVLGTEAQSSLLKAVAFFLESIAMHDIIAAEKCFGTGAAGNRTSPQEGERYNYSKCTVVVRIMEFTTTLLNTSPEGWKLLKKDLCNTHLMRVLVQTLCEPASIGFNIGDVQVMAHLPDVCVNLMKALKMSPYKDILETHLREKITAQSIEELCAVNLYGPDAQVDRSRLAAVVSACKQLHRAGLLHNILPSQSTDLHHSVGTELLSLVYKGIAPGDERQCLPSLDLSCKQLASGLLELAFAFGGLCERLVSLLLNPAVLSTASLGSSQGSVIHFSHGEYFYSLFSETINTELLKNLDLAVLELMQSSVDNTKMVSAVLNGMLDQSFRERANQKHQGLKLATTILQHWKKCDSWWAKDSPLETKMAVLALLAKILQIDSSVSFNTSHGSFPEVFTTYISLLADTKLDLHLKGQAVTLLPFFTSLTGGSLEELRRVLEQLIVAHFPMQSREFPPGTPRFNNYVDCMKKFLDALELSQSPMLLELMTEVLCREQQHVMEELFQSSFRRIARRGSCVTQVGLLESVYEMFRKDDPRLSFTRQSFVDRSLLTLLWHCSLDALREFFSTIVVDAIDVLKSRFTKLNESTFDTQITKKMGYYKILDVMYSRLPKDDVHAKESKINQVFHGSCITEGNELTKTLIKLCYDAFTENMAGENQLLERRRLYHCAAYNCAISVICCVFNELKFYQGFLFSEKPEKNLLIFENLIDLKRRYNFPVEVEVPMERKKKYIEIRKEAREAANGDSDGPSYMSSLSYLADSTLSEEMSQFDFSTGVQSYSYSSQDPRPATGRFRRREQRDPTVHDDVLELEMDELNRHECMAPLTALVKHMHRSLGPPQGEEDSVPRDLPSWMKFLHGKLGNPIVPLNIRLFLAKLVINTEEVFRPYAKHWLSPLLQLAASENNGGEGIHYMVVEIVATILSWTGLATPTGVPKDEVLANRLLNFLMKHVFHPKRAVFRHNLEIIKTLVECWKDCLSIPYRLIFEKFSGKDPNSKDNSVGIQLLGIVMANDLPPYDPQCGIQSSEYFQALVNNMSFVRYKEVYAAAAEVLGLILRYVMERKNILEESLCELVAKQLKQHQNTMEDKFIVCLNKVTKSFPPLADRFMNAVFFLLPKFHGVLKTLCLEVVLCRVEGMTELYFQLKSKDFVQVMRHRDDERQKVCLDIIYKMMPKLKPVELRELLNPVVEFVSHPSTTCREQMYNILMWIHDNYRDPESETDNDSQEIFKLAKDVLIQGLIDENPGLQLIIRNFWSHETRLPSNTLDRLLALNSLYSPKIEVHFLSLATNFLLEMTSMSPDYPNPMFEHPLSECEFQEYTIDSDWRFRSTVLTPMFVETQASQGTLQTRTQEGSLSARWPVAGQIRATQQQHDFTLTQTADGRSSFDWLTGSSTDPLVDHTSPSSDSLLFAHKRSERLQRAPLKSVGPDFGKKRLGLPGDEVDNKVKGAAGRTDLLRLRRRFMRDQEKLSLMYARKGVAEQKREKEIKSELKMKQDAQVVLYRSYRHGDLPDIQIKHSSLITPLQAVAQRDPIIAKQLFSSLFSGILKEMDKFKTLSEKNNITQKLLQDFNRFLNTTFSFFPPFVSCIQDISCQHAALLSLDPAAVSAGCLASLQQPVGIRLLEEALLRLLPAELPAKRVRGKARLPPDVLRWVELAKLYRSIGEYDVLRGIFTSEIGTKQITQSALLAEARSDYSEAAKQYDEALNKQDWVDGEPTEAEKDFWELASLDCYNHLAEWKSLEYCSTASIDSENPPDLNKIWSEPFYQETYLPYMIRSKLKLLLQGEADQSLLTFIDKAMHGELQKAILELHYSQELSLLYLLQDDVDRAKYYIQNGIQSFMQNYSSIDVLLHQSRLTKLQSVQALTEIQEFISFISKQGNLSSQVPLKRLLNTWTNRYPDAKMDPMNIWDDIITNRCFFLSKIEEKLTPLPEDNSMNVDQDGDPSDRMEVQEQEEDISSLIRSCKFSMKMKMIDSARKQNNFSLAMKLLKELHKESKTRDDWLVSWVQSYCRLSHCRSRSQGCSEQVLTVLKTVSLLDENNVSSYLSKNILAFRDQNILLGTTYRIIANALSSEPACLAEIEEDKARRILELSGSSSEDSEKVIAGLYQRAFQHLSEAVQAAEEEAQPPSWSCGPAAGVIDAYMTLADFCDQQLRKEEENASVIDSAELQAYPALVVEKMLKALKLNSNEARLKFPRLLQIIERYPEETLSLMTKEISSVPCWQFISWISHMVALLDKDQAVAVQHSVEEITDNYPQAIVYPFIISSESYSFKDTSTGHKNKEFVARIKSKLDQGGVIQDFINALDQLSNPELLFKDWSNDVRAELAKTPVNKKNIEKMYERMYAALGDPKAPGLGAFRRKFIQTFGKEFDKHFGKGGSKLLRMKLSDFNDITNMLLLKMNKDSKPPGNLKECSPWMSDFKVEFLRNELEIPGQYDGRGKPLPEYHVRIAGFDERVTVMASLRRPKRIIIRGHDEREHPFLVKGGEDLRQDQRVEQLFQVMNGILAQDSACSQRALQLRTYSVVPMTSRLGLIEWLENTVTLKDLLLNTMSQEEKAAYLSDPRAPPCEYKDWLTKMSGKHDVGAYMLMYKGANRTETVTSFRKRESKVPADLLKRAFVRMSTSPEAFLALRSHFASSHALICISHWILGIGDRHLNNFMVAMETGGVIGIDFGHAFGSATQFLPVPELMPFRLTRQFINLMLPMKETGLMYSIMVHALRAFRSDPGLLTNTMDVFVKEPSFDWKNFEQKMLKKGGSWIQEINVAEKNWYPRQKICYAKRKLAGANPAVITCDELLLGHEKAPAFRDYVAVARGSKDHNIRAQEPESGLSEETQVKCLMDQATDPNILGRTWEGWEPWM
UniProt Q9BZL6: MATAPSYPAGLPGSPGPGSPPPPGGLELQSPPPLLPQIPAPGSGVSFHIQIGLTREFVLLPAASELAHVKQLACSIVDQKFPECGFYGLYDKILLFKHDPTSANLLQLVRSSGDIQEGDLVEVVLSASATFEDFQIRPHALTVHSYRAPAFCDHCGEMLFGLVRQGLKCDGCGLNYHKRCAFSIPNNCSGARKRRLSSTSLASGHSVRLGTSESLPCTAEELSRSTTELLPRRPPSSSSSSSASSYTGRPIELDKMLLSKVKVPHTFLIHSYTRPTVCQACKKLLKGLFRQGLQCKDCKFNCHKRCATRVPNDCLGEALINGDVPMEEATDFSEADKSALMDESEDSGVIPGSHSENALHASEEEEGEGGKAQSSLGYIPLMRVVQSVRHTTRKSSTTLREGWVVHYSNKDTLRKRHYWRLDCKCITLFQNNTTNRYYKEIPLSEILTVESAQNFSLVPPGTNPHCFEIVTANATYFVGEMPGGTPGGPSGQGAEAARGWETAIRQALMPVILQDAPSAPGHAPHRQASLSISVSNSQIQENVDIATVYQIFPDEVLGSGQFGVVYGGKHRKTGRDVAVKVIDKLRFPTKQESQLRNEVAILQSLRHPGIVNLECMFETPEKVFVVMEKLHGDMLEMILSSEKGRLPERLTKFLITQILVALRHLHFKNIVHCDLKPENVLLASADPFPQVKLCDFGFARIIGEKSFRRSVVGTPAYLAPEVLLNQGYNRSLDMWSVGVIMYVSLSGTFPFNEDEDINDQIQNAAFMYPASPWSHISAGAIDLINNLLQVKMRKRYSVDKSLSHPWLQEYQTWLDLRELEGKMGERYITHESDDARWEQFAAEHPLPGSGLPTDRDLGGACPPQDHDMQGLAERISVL
UniProt Q04759: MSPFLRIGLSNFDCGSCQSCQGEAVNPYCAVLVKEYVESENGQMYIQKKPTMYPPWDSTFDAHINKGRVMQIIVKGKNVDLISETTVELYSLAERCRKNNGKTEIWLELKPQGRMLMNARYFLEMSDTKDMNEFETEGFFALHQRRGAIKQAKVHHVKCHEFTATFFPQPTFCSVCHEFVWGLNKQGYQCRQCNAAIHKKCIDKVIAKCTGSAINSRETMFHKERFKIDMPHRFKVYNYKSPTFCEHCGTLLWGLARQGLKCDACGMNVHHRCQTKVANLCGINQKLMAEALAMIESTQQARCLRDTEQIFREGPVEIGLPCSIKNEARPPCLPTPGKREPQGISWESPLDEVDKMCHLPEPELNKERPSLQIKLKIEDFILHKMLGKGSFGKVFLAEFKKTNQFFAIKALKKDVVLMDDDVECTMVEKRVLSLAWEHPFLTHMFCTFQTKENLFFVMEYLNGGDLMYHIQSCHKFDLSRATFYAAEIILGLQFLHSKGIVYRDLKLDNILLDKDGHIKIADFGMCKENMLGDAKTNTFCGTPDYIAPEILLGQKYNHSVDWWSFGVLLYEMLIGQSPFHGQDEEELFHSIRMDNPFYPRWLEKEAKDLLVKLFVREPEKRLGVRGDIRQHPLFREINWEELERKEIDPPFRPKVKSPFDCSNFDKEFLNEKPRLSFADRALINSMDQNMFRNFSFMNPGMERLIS
UniProt P41743, whole entry, looked up: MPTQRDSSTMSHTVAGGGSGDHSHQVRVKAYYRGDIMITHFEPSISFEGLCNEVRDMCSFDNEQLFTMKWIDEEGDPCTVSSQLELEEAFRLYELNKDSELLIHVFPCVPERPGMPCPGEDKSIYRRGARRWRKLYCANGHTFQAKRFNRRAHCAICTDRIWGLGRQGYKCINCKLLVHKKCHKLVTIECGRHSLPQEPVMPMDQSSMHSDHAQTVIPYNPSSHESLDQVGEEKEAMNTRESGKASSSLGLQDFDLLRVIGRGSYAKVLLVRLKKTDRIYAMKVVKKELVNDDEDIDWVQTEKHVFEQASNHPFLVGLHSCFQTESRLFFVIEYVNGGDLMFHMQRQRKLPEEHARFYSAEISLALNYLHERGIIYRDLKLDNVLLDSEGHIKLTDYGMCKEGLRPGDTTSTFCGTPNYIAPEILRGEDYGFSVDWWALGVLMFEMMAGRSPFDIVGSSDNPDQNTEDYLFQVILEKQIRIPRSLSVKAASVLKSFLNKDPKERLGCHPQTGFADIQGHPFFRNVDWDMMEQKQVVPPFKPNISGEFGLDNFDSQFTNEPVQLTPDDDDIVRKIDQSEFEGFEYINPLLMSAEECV

Compound: CC1Cc2ccccc2N1C(=O)C1CCCN(C1)C(=O)CCl (mixture of isomers) [TRIM25 ligand 11 (diastereomer mixture)]
Test: probe-labelled cysteine peptide fold change vs DMSO (competition) (log2 fold change); higher = less target engagement (more negative = stronger competition)
Conditions: THP-1, incubation time: 4 h
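Further: competitive chemoproteomic profiling in live THP-1 cells with an iodoacetamide desthiobiotin (IA-DTB) probe, comparing probe-labelled peptide intensities in compound-treated cells against DMSO-treated controls.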

Target | probe-labelled cysteine peptide fold change (10 µM) | probe-labelled cysteine peptide fold change (50 µM)
PRKRA_O75569_163_EYTTICR (UniProt O75569) | 0.00258 | 0.12
PRKDC_P78527_1128_SLGTIQQCCDAIDHLCR (UniProt P78527) | 0.128 | 0.0804
PRKDC_P78527_2363_FIVCLNK (UniProt P78527) | 0.162 | 0.0982
PRKCA_P17252_86_CHEFVTFSCPGADKGPDTDDPR (UniProt P17252) | 0.129 | -0.0426
PRKDC_P78527_2469_ELLNPVVEFVSHPSTTCR (UniProt P78527) | 0.149 | -0.032
PRKD2_Q9BZL6_188_CAFSIPNNCSGAR (UniProt Q9BZL6) | -0.0184 | 0.142
PRKCQ_Q04759_193_QCNAAIHK (UniProt Q04759) | -0.0118 | -0.0826
PRKAA1_Q13131_313+321_FECSEEEVLSCLYNR (UniProt Q13131) | -0.161 | -0.251
PRKCQ_Q04759_193_QCNAAIHKK (UniProt Q04759) | -0.181 | -0.216
PRKDC_P78527_1312_CFGTGAAGNR (UniProt P78527) | 0.0947 | 0.0509
PRKCI_P41743_137_LYCANGHTFQAK (UniProt P41743) | 0.129 | 0.201
PRICKLE3_O43900_246_HHAECLRPR (UniProt O43900) | 0.0088 | -0.0424
PRKDC_P78527_42_GLGQECVLSSSPAVLALQTSLVFSR (UniProt P78527) | 0.147 | 0.0725
PRKD2_Q9BZL6_180+188_CAFSIPNNCSGAR (UniProt Q9BZL6) | -0.156 | -0.187
PRMT5_O14744_518_LHNFHQLSAPQPCFTFSHPNRDPMIDNNR (UniProt O14744) | 0.0044 | -0.0979

Complete entries from above.
PRKCI_P41743_137_LYCANGHTFQAK (UniProt P41743) in the list: probe-labelled cysteine peptide fold change (10 µM) = 0.129; probe-labelled cysteine peptide fold change (50 µM) = 0.201
PRKCQ_Q04759_193_QCNAAIHK (UniProt Q04759) in the list: probe-labelled cysteine peptide fold change (10 µM) = -0.0118; probe-labelled cysteine peptide fold change (50 µM) = -0.0826
